# Experimental data: PubChem BioAssay AID720604 (Broad Institute, 2013)
# Inconclusive means that the source gave no clear call. Such entries were picked first, then a sample of the others. Active and inactive are the calls of the source.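 The calls were made as follows: active = compound lowering viability with a fitted half-effect dose within twice the top dose in every timed run; inconclusive = timed runs disagree on the call; inactive = inactive in every run, including a rising signal.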
# Experiment: HUVEC endothelial cell viability loss, dose response, cytotoxicity control for HRAS target identification, CellTiter-Glo ATP luminescence, 8/24/48 h, dry powder (AID 720604)
# Conditions: 8-48 h; at 35 µM (top of the series)
row,SMILES,"activity change, negative = viability loss"
1,Cc1onc(C(=O)N2CCN(C(c3ccncc3)c3ccncc3)CC2)c1[N+](=O)[O-],inactive: 6.08%
2,C#CCCCC(=O)NCCOCCOCCOc1ccc(N(C(=O)CCl)C(C(=O)NCCc2ccccc2)c2cccs2)cc1Cl (stereo not given),inconclusive: -92.7%
3,Cc1onc(C(=O)N2CCN(C(c3ccc(Cl)cc3)c3ccc(Cl)cc3)CC2)c1[N+](=O)[O-],inactive: -0.829%
4,CCC(=O)N(c1ccc(OC)c(Cl)c1)C(C(=O)NCCc1ccccc1)c1cccs1 (stereo not given),inconclusive: 0.196%
5,COC(=O)c1ccc([C@@H]2c3[nH]c4ccccc4c3C[C@@H](C(=O)OC)N2C(=O)CCl)cc1,inconclusive: -58.4%
